According to publication PMC13175477:
These are yes or no findings as the source states them, for the method shown. Binding seen in cells or lysates may run through a third protein. Some binding calls cover weakened binding; strength is not graded here. For part of these data: Tags and fused reporters may be left off the sequences shown.

The chains behind the UniProt entries cited, without tags or fusion partners. Where a name states a change or a piece, a line headed by the entry shows the natural chain unless it says otherwise. A line that says so, or that is headed by a name, gives the form on record, which may keep a tag or linker.
UniProt Q7Z2W4: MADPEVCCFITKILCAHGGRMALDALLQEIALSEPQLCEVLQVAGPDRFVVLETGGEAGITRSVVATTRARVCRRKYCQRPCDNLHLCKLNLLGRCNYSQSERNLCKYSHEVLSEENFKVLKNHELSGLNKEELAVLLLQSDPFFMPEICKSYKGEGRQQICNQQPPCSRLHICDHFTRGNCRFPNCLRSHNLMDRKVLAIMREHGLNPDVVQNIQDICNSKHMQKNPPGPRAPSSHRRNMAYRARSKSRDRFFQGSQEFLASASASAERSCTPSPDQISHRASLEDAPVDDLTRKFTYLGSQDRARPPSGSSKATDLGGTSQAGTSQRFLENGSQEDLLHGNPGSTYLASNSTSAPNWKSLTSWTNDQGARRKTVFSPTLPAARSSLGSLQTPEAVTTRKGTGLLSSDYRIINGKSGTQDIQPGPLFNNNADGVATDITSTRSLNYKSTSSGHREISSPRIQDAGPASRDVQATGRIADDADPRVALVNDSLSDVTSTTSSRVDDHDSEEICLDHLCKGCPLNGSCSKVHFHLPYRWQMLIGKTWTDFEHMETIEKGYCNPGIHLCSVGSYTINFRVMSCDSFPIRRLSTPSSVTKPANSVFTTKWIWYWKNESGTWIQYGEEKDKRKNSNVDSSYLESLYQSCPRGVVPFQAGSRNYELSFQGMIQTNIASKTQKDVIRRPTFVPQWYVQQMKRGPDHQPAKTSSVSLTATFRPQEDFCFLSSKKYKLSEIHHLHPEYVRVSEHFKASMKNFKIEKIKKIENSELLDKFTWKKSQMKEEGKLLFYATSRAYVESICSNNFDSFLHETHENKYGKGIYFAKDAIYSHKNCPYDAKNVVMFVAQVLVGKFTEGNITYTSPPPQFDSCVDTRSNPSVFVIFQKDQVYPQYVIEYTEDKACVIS
ZAP-S wildtype (Q7Z2W4, form named): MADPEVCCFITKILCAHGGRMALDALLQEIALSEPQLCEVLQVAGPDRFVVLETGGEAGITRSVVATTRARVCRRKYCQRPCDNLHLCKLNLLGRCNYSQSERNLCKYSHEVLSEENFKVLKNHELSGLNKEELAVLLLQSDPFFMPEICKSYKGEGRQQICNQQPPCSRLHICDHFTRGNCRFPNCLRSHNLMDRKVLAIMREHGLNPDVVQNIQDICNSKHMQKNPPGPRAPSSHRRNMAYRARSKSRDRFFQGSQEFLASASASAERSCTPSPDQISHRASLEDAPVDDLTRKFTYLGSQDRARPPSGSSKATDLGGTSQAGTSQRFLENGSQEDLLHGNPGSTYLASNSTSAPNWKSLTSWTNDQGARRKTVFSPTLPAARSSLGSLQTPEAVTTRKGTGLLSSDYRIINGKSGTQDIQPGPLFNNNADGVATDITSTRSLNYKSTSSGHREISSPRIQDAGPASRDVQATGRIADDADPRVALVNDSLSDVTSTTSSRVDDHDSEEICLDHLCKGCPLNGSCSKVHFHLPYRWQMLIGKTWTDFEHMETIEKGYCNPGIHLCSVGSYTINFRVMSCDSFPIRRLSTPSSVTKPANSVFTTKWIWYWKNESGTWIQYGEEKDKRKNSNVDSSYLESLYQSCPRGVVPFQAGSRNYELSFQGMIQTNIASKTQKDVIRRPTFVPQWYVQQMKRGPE

Tests used:
ZAP-L-FLAG (human) [1] = target: ZAP-L-FLAG (human) (UniProt Q7Z2W4); test: co-IP; HEK293T ZAP-/- TRIM25-/- co-transfected, 48 h; ZAP precipitated from lysates (ZAP-L-FLAG with anti-FLAG; antibody for ZAP-S not stated); buffers as in the co-IP methods; western blot
OAS2-FLAG (human) = target: T1, OAS2-FLAG (human) (UniProt P29728); test: co-IP; HEK293T co-transfected, 48 h; lysis in 10mM HEPES pH7.5, 30mM KCl, 40uM EDTA, 0.1% Igepal CA-630, 1mM DTT; FLAG-tagged sensor precipitated with anti-FLAG on Protein G Dynabeads, 2h at 4C; final washes with 300mM KCl, 0.5% Igepal; western blot
T1 sequence: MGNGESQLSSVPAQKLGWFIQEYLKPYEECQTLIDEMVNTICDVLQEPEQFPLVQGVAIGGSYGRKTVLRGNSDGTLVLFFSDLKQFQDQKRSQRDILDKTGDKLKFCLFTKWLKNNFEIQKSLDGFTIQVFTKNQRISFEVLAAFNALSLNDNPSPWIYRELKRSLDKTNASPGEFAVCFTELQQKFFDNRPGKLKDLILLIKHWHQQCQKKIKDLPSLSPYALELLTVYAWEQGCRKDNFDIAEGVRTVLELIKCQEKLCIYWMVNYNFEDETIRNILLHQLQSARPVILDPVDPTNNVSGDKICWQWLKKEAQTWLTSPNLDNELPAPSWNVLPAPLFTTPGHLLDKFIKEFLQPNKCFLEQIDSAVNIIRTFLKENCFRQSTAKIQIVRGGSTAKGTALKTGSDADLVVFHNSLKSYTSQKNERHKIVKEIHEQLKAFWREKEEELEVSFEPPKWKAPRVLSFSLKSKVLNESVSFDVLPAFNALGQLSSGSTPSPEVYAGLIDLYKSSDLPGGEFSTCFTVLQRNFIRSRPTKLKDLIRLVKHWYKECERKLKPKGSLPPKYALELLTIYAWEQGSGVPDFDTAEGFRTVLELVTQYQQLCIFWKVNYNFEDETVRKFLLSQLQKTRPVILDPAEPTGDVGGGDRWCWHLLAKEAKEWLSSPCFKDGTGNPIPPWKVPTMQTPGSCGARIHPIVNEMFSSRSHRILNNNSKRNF

RIG-I-FLAG (human) = target: T2, RIG-I-FLAG (human) (UniProt O95786); test: as above
T2 sequence: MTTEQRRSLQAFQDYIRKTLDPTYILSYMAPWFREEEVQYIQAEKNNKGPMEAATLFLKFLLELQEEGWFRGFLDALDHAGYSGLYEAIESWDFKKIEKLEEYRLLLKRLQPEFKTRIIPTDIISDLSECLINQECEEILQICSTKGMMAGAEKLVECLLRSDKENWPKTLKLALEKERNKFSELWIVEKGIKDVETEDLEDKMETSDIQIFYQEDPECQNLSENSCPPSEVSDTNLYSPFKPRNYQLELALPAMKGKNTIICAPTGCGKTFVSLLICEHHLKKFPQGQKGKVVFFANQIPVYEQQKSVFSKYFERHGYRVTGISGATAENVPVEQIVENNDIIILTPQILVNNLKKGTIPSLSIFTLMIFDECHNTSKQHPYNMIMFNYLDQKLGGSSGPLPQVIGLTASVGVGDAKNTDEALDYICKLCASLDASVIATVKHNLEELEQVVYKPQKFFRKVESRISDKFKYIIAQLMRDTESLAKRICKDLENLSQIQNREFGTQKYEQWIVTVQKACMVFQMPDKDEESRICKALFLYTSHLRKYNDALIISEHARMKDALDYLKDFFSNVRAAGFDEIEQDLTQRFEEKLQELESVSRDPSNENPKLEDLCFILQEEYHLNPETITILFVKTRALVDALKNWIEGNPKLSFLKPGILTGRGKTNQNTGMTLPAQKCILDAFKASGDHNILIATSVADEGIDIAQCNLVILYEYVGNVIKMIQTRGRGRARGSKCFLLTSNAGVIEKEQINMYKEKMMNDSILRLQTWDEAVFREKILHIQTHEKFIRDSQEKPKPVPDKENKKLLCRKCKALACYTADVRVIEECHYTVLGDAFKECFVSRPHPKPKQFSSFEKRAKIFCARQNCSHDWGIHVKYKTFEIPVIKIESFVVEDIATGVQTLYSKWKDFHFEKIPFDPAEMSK

ZAP-L-FLAG (human) [2] = target: ZAP-L-FLAG (human) (UniProt Q7Z2W4); test: as above
ZAP-L-HA (human) = ZAP-L-HA (human) (UniProt Q7Z2W4); test: co-IP; HEK293T transfected with ZAP-L-HA, GFP-HA and OASL; ZAP- or GFP-complexes purified from lysates with an anti-HA antibody; western blot
ZAP-S wildtype (human) = ZAP-S wildtype (human) (UniProt Q7Z2W4); test: co-IP; HEK293T ZAP-/- TRIM25-/- co-transfected, 48 h; ZAP precipitated from lysates (ZAP-L-FLAG with anti-FLAG; antibody for ZAP-S not stated); buffers as in the co-IP methods; western blot
ZAP-L-FLAG (human) [3] = target: ZAP-L-FLAG (human) (UniProt Q7Z2W4); test: co-IP; HEK293T ZAP-/- TRIM25-/- KHNYN-/- N4BP1-/- co-transfected; ZAP-L complexes isolated from lysates; western blot; in Fig 5g 500ng of ZAP-L and TRIM25 plasmids with increasing amounts of KHNYN plasmid
[4] = target: T3, mouse RIG-I (mouse (Mus musculus)) (UniProt Q6Q899); test: co-IP; HEK293T co-transfected, 48 h; lysis in 10mM HEPES pH7.5, 30mM KCl, 40uM EDTA, 0.1% Igepal CA-630, 1mM DTT; FLAG-tagged sensor precipitated with anti-FLAG on Protein G Dynabeads, 2h at 4C; final washes with 300mM KCl, 0.5% Igepal; western blot
T3 sequence: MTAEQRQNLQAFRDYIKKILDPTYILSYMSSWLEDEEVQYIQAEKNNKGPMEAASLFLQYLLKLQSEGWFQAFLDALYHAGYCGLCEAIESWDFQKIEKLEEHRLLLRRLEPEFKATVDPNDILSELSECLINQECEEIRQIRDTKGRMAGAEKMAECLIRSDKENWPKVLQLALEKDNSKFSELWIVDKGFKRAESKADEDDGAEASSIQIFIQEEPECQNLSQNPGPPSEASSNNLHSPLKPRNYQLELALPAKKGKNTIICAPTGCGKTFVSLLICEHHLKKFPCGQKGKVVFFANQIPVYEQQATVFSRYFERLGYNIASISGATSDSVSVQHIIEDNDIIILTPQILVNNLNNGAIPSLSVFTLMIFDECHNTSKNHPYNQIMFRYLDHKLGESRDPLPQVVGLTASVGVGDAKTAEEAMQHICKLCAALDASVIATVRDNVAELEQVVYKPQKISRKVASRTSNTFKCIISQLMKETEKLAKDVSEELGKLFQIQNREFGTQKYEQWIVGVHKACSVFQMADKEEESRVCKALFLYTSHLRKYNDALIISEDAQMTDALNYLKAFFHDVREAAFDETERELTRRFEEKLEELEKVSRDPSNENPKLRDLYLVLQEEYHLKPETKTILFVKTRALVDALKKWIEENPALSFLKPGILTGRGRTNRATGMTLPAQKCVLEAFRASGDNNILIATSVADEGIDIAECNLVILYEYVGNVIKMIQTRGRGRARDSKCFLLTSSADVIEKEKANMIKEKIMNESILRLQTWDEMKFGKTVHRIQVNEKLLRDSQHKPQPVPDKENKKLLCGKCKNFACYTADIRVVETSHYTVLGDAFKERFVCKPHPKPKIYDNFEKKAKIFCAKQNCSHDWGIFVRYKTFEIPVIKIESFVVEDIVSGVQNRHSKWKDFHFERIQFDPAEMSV

[5] = target: T4, human Riplet (in-cell crosslinking) (human), Q8IUD6; test: cross-linking; in-cell: 0.00625% glutaraldehyde in serum-free DMEM, 15min, room temperature, quenched with 50mM Tris-HCl pH 8; lysates on Tris-Acetate 3-8% gels; western blot; details: remark: other sources report otherwise
T4 chain: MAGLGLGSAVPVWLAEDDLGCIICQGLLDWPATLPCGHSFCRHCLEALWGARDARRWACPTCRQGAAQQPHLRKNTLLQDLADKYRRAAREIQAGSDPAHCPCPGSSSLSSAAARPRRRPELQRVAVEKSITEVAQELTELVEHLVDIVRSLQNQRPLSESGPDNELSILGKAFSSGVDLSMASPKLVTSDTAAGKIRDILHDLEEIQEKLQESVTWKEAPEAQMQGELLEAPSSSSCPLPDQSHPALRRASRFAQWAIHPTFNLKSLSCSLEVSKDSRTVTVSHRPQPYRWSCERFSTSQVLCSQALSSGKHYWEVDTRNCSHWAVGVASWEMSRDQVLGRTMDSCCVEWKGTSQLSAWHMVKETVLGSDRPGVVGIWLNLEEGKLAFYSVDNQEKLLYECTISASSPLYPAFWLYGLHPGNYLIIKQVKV

B1: Riplet-HA (enzyme, UniProt Q8IUD6 1-432)
chain: MAGLGLGSAVPVWLAEDDLGCIICQGLLDWPATLPCGHSFCRHCLEALWGARDARRWACPTCRQGAAQQPHLRKNTLLQDLADKYRRAAREIQAGSDPAHCPCPGSSSLSSAAARPRRRPELQRVAVEKSITEVAQELTELVEHLVDIVRSLQNQRPLSESGPDNELSILGKAFSSGVDLSMASPKLVTSDTAAGKIRDILHDLEEIQEKLQESVTWKEAPEAQMQGELLEAPSSSSCPLPDQSHPALRRASRFAQWAIHPTFNLKSLSCSLEVSKDSRTVTVSHRPQPYRWSCERFSTSQVLCSQALSSGKHYWEVDTRNCSHWAVGVASWEMSRDQVLGRTMDSCCVEWKGTSQLSAWHMVKETVLGSDRPGVVGIWLNLEEGKLAFYSVDNQEKLLYECTISASSPLYPAFWLYGLHPGNYLIIKQVKV
Q: What does the source list for B1?
A: binding (ZAP-L-FLAG (human) [1]): no binding; binding (OAS2-FLAG (human)): binds; binding (RIG-I-FLAG (human)): binds; binding (ZAP-L-FLAG (human) [2]): no binding

B2: OASL (protein, UniProt Q15646 1-514)
chain: MALMQELYSTPASRLDSFVAQWLQPHREWKEEVLDAVRTVEEFLRQEHFQGKRGLDQDVRVLKVVKVGSFGNGTVLRSTREVELVAFLSCFHSFQEAAKHHKDVLRLIWKTMWQSQDLLDLGLEDLRMEQRVPDALVFTIQTRGTAEPITVTIVPAYRALGPSLPNSQPPPEVYVSLIKACGGPGNFCPSFSELQRNFVKHRPTKLKSLLRLVKHWYQQYVKARSPRANLPPLYALELLTIYAWEMGTEEDENFMLDEGFTTVMDLLLEYEVICIYWTKYYTLHNAIIEDCVRKQLKKERPIILDPADPTLNVAEGYRWDIVAQRASQCLKQDCCYDNRENPISSWNVKRARDIHLTVEQRGYPDFNLIVNPYEPIRKVKEKIRRTRGYSGLQRLSFQVPGSERQLLSSRCSLAKYGIFSHTHIYLLETIPSEIQVFVKNPDGGSYAYAINPNSFILGLKQQIEDQQGLPKKQQQLEFQGQVLQDWLGLGIYGIQDSDTLILSKKKGEALFPAS
Q: For B2, which binding (ZAP-L-HA (human)) is on record?
A: The binding was “binds”.

Q: And the binding (ZAP-S wildtype (human))?
A: The binding was “binds”.

Q: What about the binding (ZAP-L-FLAG (human) [3]) of the same binder?
A: Its binding is “binds”.

B3: mouse Riplet (enzyme, UniProt Q9CWS1 1-417)
chain: MAAVCSGNAVPVWLSEDDLSCIICQGLLDQPTTLPCGHSFCLRCLHDLWVSKRGAVDGCPWACPICRKGPLTKPKLHKNPLLQDLVDKYLQAAREVEAGSEPEPAPAPRSAPQVTVQKSTTNVIQELTDMVRQLVDDVKSLQTQRPNLGSGQDNAQGTPPTDSSSEGEHSLDSPKLVTFSISQKKIQEILHNLEEIQEKLQGSVPGRAPPRERVQEMTSSLCLLPDQRRPAPRKASHLSLWAISPTFDLRTLSYNLEVSNNSRRVTVSRGDLHTYHWSPQRFSISQVFCSQALSSGQKYWEVDTRNCSHWAIGVASWGMKRDGMLGRTMDSWCIEWRGPGQFSAWAKMKKTDLQSDLPEVVGVWLDLESGELAFYAVADHERLLYECEVSSSSPLHPAFWLYGLSPGNYLEIKQLNT
Q: How did the binding [4] turn out when B3 was run?
A: The binding was “binds”.

B4: human Riplet (in-cell crosslinking), Q8IUD6 1-432 (enzyme)
chain: MAGLGLGSAVPVWLAEDDLGCIICQGLLDWPATLPCGHSFCRHCLEALWGARDARRWACPTCRQGAAQQPHLRKNTLLQDLADKYRRAAREIQAGSDPAHCPCPGSSSLSSAAARPRRRPELQRVAVEKSITEVAQELTELVEHLVDIVRSLQNQRPLSESGPDNELSILGKAFSSGVDLSMASPKLVTSDTAAGKIRDILHDLEEIQEKLQESVTWKEAPEAQMQGELLEAPSSSSCPLPDQSHPALRRASRFAQWAIHPTFNLKSLSCSLEVSKDSRTVTVSHRPQPYRWSCERFSTSQVLCSQALSSGKHYWEVDTRNCSHWAVGVASWEMSRDQVLGRTMDSCCVEWKGTSQLSAWHMVKETVLGSDRPGVVGIWLNLEEGKLAFYSVDNQEKLLYECTISASSPLYPAFWLYGLHPGNYLIIKQVKV
Q: How did the binding [5] turn out when B4 was run?
A: The binding was “no binding”.
